{"source": "PubChem BioAssay AID1259254 (NCATS, 2017)", "assay": "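Genome-wide screen for genes that prevent DNA re-replication in cancer cells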 (primary screen)", "cell system": "human HCT116 colorectal cancer cells", "reagents": "single siRNA against human genes", "duration": "3 days", "read-out": "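Nuclei stained with Hoechst and imaged; cell-cycle phase assigned by DNA content; G2 share scaled per plate, non-targeting siRNA 0%, GMNN siRNA 100%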", "scale": "G2 robust z-score: higher = more G2 cells, more excess DNA replication", "hit rule": "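Active siRNAs have a G2 robust z of 5 or more median absolute deviations over the median, which in these data means about 38% or higher of GMNN control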", "note": "In all, the deposit lists about 59,000 reagents; shown is an unselected part. About 1,550 of all reagents (2.6%) were called active. 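G2 share is only a proxy for re-replication; each gene was hit by three separate siRNAs, and active genes were retested.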 The numbers tell different reagents against one gene apart. Further read-outs or replicates are left out here. Reagent sequences are not shown. The record does not give: the amount of reagent."}
{"gene symbol": "SMYD2", "reagent": 1, "G2 robust z-score": -0.0255, "call": "inactive"}
{"gene symbol": "SMYD2", "reagent": 2, "G2 robust z-score": -0.647, "call": "inactive"}
{"gene symbol": "SMYD2", "reagent": 3, "G2 robust z-score": 1.95, "call": "inactive"}
{"gene symbol": "DEPDC1B", "reagent": 1, "G2 robust z-score": -0.106, "call": "inactive"}
{"gene symbol": "DEPDC1B", "reagent": 2, "G2 robust z-score": -0.7, "call": "inactive"}
{"gene symbol": "DEPDC1B", "reagent": 3, "G2 robust z-score": 0.265, "call": "inactive"}
{"gene symbol": "IDI1", "reagent": 1, "G2 robust z-score": -0.448, "call": "inactive"}
{"gene symbol": "IDI1", "reagent": 2, "G2 robust z-score": 1.18, "call": "inactive"}
{"gene symbol": "IDI1", "reagent": 3, "G2 robust z-score": -0.971, "call": "inactive"}
{"gene symbol": "AGAP2", "reagent": 1, "G2 robust z-score": -0.6, "call": "inactive"}
{"gene symbol": "AGAP2", "reagent": 2, "G2 robust z-score": -0.803, "call": "inactive"}
{"gene symbol": "AGAP2", "reagent": 3, "G2 robust z-score": 0.996, "call": "inactive"}
{"gene symbol": "GLYCTK", "reagent": 1, "G2 robust z-score": 0.376, "call": "inactive"}
{"gene symbol": "GLYCTK", "reagent": 2, "G2 robust z-score": -0.72, "call": "inactive"}
{"gene symbol": "GLYCTK", "reagent": 3, "G2 robust z-score": -0.87, "call": "inactive"}
{"gene symbol": "ALDH6A1", "reagent": 1, "G2 robust z-score": 1.67, "call": "inactive"}
{"gene symbol": "ALDH6A1", "reagent": 2, "G2 robust z-score": 2.97, "call": "inactive"}
{"gene symbol": "ALDH6A1", "reagent": 3, "G2 robust z-score": -1.34, "call": "inactive"}

2 entries from above, reformatted:
gene symbol | reagent | G2 robust z-score | call
SMYD2 | 3 | 1.95 | inactive
DEPDC1B | 1 | -0.106 | inactive
